Tested on: individual
Assay: Self-administration of combinations and single-compound controls, subjective reports recorded by the individual
Format: in vivo, human
Description: In several examples of such administration, the combinations as follows were self-administered, with the subjective reports recorded by the individual during and/or following such administration, as below.
The following example was performed for purposes of and is presented as a control.
In an example, the combination as set forth below was self-administered, with the report as follows.
The working example below was performed for purposes of and is presented as a control.
The working examples below were also performed for purposes of and are presented as controls, using an escalating dose of a single primer alone, applicable to this and other Examples.

## COc1ccc2[nH]cc(CCN(C)C(C)C)c2c1 [Example 5-MeO-MiPT, N-isopropyl-5-methoxy-N-methyltryptamine]
control: 10.0 mg 5-MeO-MiPT alone
  time until the drug came on: 30 min

## COc1nc(C)nc(Cl)c1NC1=NCCN1 [Moxonidine, 4-Chloro-N-(4,5-dihydro-1H-imidazol-2-yl)-6-methoxy-2-methylpyrimidin-5-amine]
control: 0.2 mg Moxonidine alone, 12:30 pm
  time until effect was felt: about one hour

## C1COC(NC(C2CC2)C2CC2)=N1 [Rilmenidine, N-(dicyclopropylmethyl)-4,5-dihydro-1,3-oxazol-2-amine]
control: 1.0 mg Rilmenidine alone, 9:00 pm
  time until effect was felt: half an hour
